No constants are given. Whether binding was seen depends on the method and setting. In cells and extracts the contact can be indirect. Here binding means that the protein was enriched with, or labelled near, the bait; the list need not be complete.
Biological target: TAP-TRIM28 (human) (UniProt Q13263)
Assay: affinity purification with mass spectrometry

By UniProt entry, the sequences of proteins in these tests, tags left out.
UniProt Q13263: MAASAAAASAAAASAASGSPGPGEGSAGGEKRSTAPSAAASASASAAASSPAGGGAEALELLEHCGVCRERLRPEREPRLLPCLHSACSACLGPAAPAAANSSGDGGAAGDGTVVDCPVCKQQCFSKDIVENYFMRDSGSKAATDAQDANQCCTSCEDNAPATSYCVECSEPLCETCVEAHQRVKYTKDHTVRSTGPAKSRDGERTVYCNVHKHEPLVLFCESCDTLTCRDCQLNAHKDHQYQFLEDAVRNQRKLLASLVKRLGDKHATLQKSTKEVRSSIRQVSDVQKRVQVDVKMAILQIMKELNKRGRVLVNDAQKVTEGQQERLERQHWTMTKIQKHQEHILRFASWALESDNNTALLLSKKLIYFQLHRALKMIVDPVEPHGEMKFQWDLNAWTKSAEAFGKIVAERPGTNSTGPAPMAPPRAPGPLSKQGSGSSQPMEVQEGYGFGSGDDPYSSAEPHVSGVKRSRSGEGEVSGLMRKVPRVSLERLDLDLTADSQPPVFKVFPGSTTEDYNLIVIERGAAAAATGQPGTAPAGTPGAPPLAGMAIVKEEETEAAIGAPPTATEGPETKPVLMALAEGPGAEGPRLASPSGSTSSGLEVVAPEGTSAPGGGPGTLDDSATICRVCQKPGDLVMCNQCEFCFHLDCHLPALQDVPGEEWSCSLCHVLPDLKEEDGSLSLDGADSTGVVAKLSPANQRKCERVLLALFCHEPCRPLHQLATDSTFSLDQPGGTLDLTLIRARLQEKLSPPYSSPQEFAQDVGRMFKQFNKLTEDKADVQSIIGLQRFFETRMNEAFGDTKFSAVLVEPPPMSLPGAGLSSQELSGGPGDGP

B1: endogenous ALKBH2 (H1299) (protein, UniProt Q6NS38 1-261)
chain: MDRFLVKGAQGGLLRKQEEQEPTGEEPAVLGGDKESTRKRPRREAPGNGGHSAGPSWRHIRAEGLDCSYTVLFGKAEADEIFQELEKEVEYFTGALARVQVFGKWHSVPRKQATYGDAGLTYTFSGLTLSPKPWIPVLERIRDHVSGVTGQTFNFVLINRYKDGCDHIGEHRDDERELAPGSPIASVSFGACRDFVFRHKDSRGKSPSRRVAVVRLPLAHGSLLMMNHPTNTHWYHSLPVRKKVLAPRVNLTFRKILLTKK
binding: binds

From doi:10.1101/2025.11.21.689678 (bioRxiv, 2025)
